In PubChem BioAssay AID1347426 (Functional Genomics Laboratory (NCATS/FGL), 2020):
Screen size: about 31,000 sequences; about 1,400 (4.5%) were called active.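 The calls were made as follows: active = median seed-adjusted z-score above 1 or below -1; inactive = the rest.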 The list shows a part of the results.

Assay: Novel Modifiers of Survival Motor Neuron (SMN) Protein: Gene Identification via Genome-wide siRNA Screen;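 also: luminescence tracks full-length SMN protein made from the SMN2 reporter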
Conditions: HEK293T SMN2-luciferase reporter, siRNA knockdown, 72 h; actives lie on both sides
Outline: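 Genome-wide siRNA screen (10418 genes, 3 siRNAs each, 1 pmol per well) by reverse transfection in HEK293T cells stably carrying an SMN2-luciferase reporter; luminescence after 72 hours, normalized to negative-control siRNA, log10-transformed, MAD-scored.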
For AGACGGUCCUCUUUCGACATT against LOC442229, the median seed-adjusted z-score was inactive: 0.183.
In the case of AGCCUGAAACCAACACAUUTT against NAT8L, the median seed-adjusted z-score is reported as inactive: 0.
For GAACCUGUACGGGAUGCUATT against KIF12, the median seed-adjusted z-score was inactive: 0.0971.
With CAGUGACUAUAAACUUGUUTT against PCDHAC1 the median seed-adjusted z-score was inactive: -0.189.
For CUAUAGCUGUCUCCCAGAATT against PRICKLE2, the median seed-adjusted z-score was active: -1.12.
For GGGCAACUUCAAAUCGAUATT against DNAJB6, the median seed-adjusted z-score was inactive: -0.251.
In the case of GGUCUUGGAGGGAAUCCUATT against AOF2, the median seed-adjusted z-score is reported as inactive: -0.215.
In the case of GCCCAUCGAUGGUAUACAUTT against SMARCA2, the median seed-adjusted z-score is reported as inactive: -0.458.
In the case of CAGCCCUAAUAAUUACUUUTT against PCDHGA11, the median seed-adjusted z-score is reported as inactive: 0.0518.
For UCACACUCAUGGAUCAGAATT against MYL5, the median seed-adjusted z-score was inactive: 0.097.
For GAUUGCAUCUGGACCAUUATT against NETO2, the median seed-adjusted z-score was inactive: -0.136.
For GGAAAGUUGUGGGUCUAAUTT against SERPINA7, the median seed-adjusted z-score was inactive: 0.0925.
For CGACGGUGACUGGUACUUUTT against LGI3, the median seed-adjusted z-score was inactive: -0.0189.
In the case of CGAGACCAGCAGUACGAGATT against TNFRSF25, the median seed-adjusted z-score is reported as inactive: -0.534.
In the case of GAAUAUAACUCCACAAGAUTT against ST8SIA5, the median seed-adjusted z-score is reported as inactive: -0.358.
In the case of GAAUCACCAUUUAAGUGCATT against PDE1C, the median seed-adjusted z-score is reported as inactive: 0.157.
In the case of GAUCGUCUUUUCUACAUCUTT against SLC27A1, the median seed-adjusted z-score is reported as inactive: 0.253.
For GCUCGUGACUGUAGAUGAATT against CCT8L2, the median seed-adjusted z-score was inactive: -0.39.
With GGCUGAUAAAAAUCCACGATT against RICS the median seed-adjusted z-score was inactive: 0.665.
In the case of CCAAGGCUGUCAGACUUCATT against CPSF2, the median seed-adjusted z-score is reported as inactive: 0.0263.
For GGCAUUACCUCUGCAGGAATT against IP6K1, the median seed-adjusted z-score was inactive: -0.317.
In the case of GCAUGUUAUUGAAUUAUCATT against TM9SF2, the median seed-adjusted z-score is reported as active: 1.09.
In the case of GACCAUCAACCUUACUGUATT against HEPACAM, the median seed-adjusted z-score is reported as inactive: -0.063.
With CACCUCUAAUCAUCGAUGATT against UAP1 the median seed-adjusted z-score was inactive: 0.0411.
In the case of CCAGCGGAAUUGUCAAUGATT against KCNIP2, the median seed-adjusted z-score is reported as inactive: 0.415.
For GCAACUACUUCCGAUCUAATT against KIF17, the median seed-adjusted z-score was inactive: -0.151.
With CAAUGGAUCGGCUUCCUUATT against ADRA2B the median seed-adjusted z-score was inactive: 0.00853.
In the case of UAAGCAACCUGCUAACUGATT against TMCO6, the median seed-adjusted z-score is reported as inactive: -0.227.
With CUAUCCUCCUGUCUGCGAATT against ZNF167 the median seed-adjusted z-score was inactive: 0.409.
For GCAUUAGGUUCACUAAAUATT against GPR160, the median seed-adjusted z-score was inactive: -0.278.
With CUGUUACAGUGAAACGGAATT against MYNN the median seed-adjusted z-score was inactive: 0.0702.
For AGCUAUUCAGAGCCUGAAATT against ATP5L, the median seed-adjusted z-score was inactive: -0.295.
With GGAAAUUUGUAGCUCAAGUTT against CHRNB3 the median seed-adjusted z-score was inactive: -0.0155.
With GGCUGAAUGUAACAGAGGATT against OAZ1 the median seed-adjusted z-score was inactive: 0.144.
With CGGACAGAUCGAUUACUCATT against ZNF740 the median seed-adjusted z-score was inactive: -0.914.
With GAAAGUCCAGAGGAGUUUATT against ZNF434 the median seed-adjusted z-score was inactive: 0.545.
With CCUCGAUAAUAUAACACGATT against FCGRT the median seed-adjusted z-score was inactive: -0.00396.
For GCCUAGCUAUAGUUAGGAATT against RABL2B, the median seed-adjusted z-score was inactive: 0.454.
In the case of GAACUCAACUUGGUCUGCATT against RPUSD4, the median seed-adjusted z-score is reported as inactive: -0.0264.
In the case of GCCGACUUAUUAAAACUGATT against UBP1, the median seed-adjusted z-score is reported as inactive: 0.847.
In the case of GUGAUAAGCUGAGUACUGATT against TIPARP, the median seed-adjusted z-score is reported as inactive: 0.372.
In the case of GCGGUGCUCUUAUAUAGCATT against APPBP2, the median seed-adjusted z-score is reported as inactive: -0.0432.
In the case of GUAUUAUUAGGGUUACGAATT against PHF21B, the median seed-adjusted z-score is reported as inactive: 0.327.
In the case of CAGGCUCACUCGCAAAGAATT against USP31, the median seed-adjusted z-score is reported as inactive: -0.755.
In the case of GCCUCCCACUACUUUGAAATT against IL2RB, the median seed-adjusted z-score is reported as inactive: 0.333.
For GGCUAACUGUGACUGGAUUTT against OVCH2, the median seed-adjusted z-score was inactive: 0.439.
For GCAUCAAGUCCGAACCGAUTT against MEF2A, the median seed-adjusted z-score was inactive: -0.0658.
With GAAUACUACCUUGACGGAATT against IL10RB the median seed-adjusted z-score was inactive: 0.167.
For CGAAAUUUCCCGGACCUGATT against CPZ, the median seed-adjusted z-score was inactive: -0.0748.
With CUUUUGAACAAAUCCAGAATT against SYT1 the median seed-adjusted z-score was inactive: 0.435.
In the case of GAACGAAAGGUCCUCAGUATT against SPATA21, the median seed-adjusted z-score is reported as active: -1.03.
With CACUUGACAUGGUUGUGCATT against PIGF the median seed-adjusted z-score was inactive: -0.239.
In the case of UCAUCGUGGUGCUUUCGGATT against SIGIRR, the median seed-adjusted z-score is reported as inactive: 0.0269.
In the case of UGAACUACGUGACCGCGAATT against ELAVL1, the median seed-adjusted z-score is reported as inactive: 0.316.
In the case of GCACUAGAGCAGUUCCAAUTT against HS2ST1, the median seed-adjusted z-score is reported as inactive: 0.421.
In the case of GGAAGUAAAUGUUGUUUUATT against CCL11, the median seed-adjusted z-score is reported as inactive: -0.221.
With CAUGGUCCUUGAUCUCUUUTT against SCNN1B the median seed-adjusted z-score was inactive: 0.585.
In the case of GAUGAUAUUUAUUCACCAATT against ZBTB25, the median seed-adjusted z-score is reported as inactive: 0.
With CAACAACCUUACACGAGUATT against LRIG2 the median seed-adjusted z-score was inactive: 0.386.
For GAGCAGUACUGGGAAGAGATT against CARD14, the median seed-adjusted z-score was inactive: -0.104.
For AGCAGGUUUUGGGAACCAATT against FCN3, the median seed-adjusted z-score was inactive: -0.112.
With AGUUUACAGUGACAGCUUATT against CLSTN3 the median seed-adjusted z-score was inactive: 0.
In the case of GGAGCACUACGUGCUGUACTT against EFNA2, the median seed-adjusted z-score is reported as inactive: -0.314.
For CCAUAGAACGAGCAACCUUTT against CASP5, the median seed-adjusted z-score was inactive: 0.655.
With GCAUAAGGUUCAGAGCCUATT against CUX1 the median seed-adjusted z-score was inactive: -0.527.
In the case of CUGUGAGAAUAAUCGCUAUTT against PDHA1, the median seed-adjusted z-score is reported as inactive: 0.346.
In the case of CAGUCUGAGUGUGAGUACATT against APLNR, the median seed-adjusted z-score is reported as inactive: 0.794.
In the case of GAGAAGAUAUUGCAAAAUATT against SLU7, the median seed-adjusted z-score is reported as inactive: -0.97.
